Results on 58 molecules are retold here after PubChem BioAssay AID1487 (National Center for Advancing Translational Sciences (NCATS), 2009).

The other results are listed elsewhere or left out. Further columns of the screen follow, without active or inactive calls. The list favours compounds with an active or inconclusive main result. Potencies come from curve fits of mixed quality, noted in brackets.

A word on the AC50: it is the concentration at which the activity in the assay is half-maximal.

The assay is described as follows: qHTS Assay for Modulators of Lamin A Splicing. To be noted: HeLa LMNA splicing GFP/RFP minigene ratio, 48 h. Summed up:
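S3 HeLa cells stably expressing lamin A-EGFP splicing minigene plus DsRed2, 600 cells/well, 48 h compound exposure at 37C. Laser-scanning cytometry; analysed as GFP (500-530 nm)/RFP (575-640 nm) total intensity ratio; 0.5% DMSO vehicle.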
(In general: Quantitative high-throughput screening tests each substance at several concentrations.)

The mark [1] stands for this setting: measured here: RFP viability control channel.
Where [2] appears, read: measured here: GFP splicing reporter channel.

As for `CCN(Cc1cc2ccccc2[nH]c1=O)S(=O)(=O)c1ccccc1`, the AC50 under setting [1] is 15.8 µM [rising, single point].
For `CC(C)n1nc(C(=O)Nc2nc3ccccc3[nH]2)c2ccccc2c1=O`, the half-maximal activity concentration (AC50) under setting [1] is 7.94 µM [rising, partial curve, poor fit].
With `N#Cc1ccccc1N=Cc1ccc(Br)cc1`, the AC50 under setting [1] was 31.6 µM [rising, single point].
As to `COc1ccc(CCNC(=O)CCSc2nc(-c3ccco3)cc(C(F)(F)F)n2)cc1OC`, the AC50 under setting [1] is 14.1 µM [rising, single point].
As for `Cc1ccc(N2CCN(CCc3nc4cc(NS(C)(=O)=O)ccc4n3C)CC2)cc1`, the AC50 under setting [1] is 31.6 µM [rising, single point].
As to `COCCn1c(SCC(=O)Nc2cc(Cl)ccc2OC)nc2c([nH]c3ccccc32)c1=O`, under setting [1], the AC50 is 35.5 µM [falling, single point].
For the molecule `Cn1c(=O)c2nc(SCC(=O)Nc3ccc(OC(F)(F)F)cc3)n(C)c2n(C)c1=O`, the AC50 under setting [2] is 35.5 µM [rising, partial curve, poor fit].
Turning to `Cc1nn(-c2ccccc2)c(Cl)c1/C=N/N1CCN(c2ccccn2)CC1`, under setting [2], the AC50 is 0.0316 µM [rising, full curve, poor fit].
For `CC1CCCC(C)N1C(=O)c1ccccc1Nc1ccc(SC(F)F)cc1` (stereo not drawn), the AC50 is, setting by setting: under setting [2], 22.4 µM [falling, single point]; under setting [1], 11.2 µM [falling, partial curve].
For the molecule `CC(/C=N/NC(=O)CSc1nc(C)cc(C)n1)=C\c1ccccc1`, under setting [1], the concentration at half-maximal activity (AC50) was 35.5 µM [rising, single point].
Consider `CC1=NOC(=O)/C1=C/c1ccc(-c2ccc(Cl)cc2)o1`, for which, under setting [1], the AC50 is 28.2 µM [rising, single point].
For `COc1cccc(NC(=O)NC2(C(F)(F)F)Oc3ccccc3O2)c1`, under setting [1], the concentration at half-maximal activity (AC50) is 17.8 µM [rising, single point].
For the molecule `CCN(CC)CCCNC(=O)N[C@@H](Cc1ccccc1)C(=O)O`, the AC50 was 35.5 µM [rising, single point] under setting [2] and 35.5 µM [rising, single point] under setting [1].
As for `Cc1ccc(C#N)c(SCc2nnc(-c3ccc(Cl)cc3)o2)n1`, the AC50 was 0.0224 µM [rising, full curve, poor fit] under setting [2] and 0.0224 µM [rising, full curve, poor fit] under setting [1].
Regarding `CC1(C)C2C/C(=N\O)C(C)(/[N+]([O-])=C/c3cccc([N+](=O)[O-])c3)CC21` (stereo not drawn), the concentration at half-maximal activity (AC50) under setting [2] was 14.1 µM [falling, single point].
`O=C(c1ccc(F)cc1F)N(Cc1ccccn1)Cc1ccco1`: the AC50 under setting [1] was 10 µM [falling, single point].
Consider `CC1CN(C(=O)/C=C/c2ccc([N+](=O)[O-])s2)CC(C)O1` (stereo not drawn), for which the half-maximal activity concentration (AC50) is 35.5 µM [falling, single point] under setting [2] and 8.91 µM [falling, partial curve, poor fit] under setting [1].
As to `CC(=O)c1cccc(NC(=O)Cc2coc3cc4c(cc23)CCC4)c1`, the concentration at half-maximal activity (AC50) under setting [2] was 14.1 µM [rising, single point] and the AC50 under setting [1] was 25.1 µM [rising, partial curve].
As for `Cc1cc(NC(=O)/C=C/c2ccc(Br)cc2)no1`, the half-maximal activity concentration (AC50) under setting [1] was 5.62 µM [rising, partial curve, poor fit].
Consider `CC1CCCN(CCCNC(=O)c2cc(Sc3ccc(F)cc3)nc3ccccc23)C1` (stereo not drawn), for which the AC50 under setting [2] was 35.5 µM [falling, single point].
With `COc1ccccc1OCc1ccc(C(=O)Nc2ccncc2)o1`, the AC50 under setting [1] is 22.4 µM [rising, partial curve, poor fit].
As for `O=C(COC(=O)c1ccco1)NCc1ccccc1Cl`, the AC50 under setting [1] was 0.562 µM [rising, partial curve, poor fit].
For the molecule `COc1cccc(-c2nnc(SCc3ccc(C#N)cc3)n2Cc2ccco2)c1`, the concentration at half-maximal activity (AC50) under setting [2] is 11.2 µM [rising, partial curve, poor fit] and the AC50 under setting [1] was 11.2 µM [rising, partial curve].
Turning to `COc1ccc(-c2c(C#N)c(SCC(=O)c3cc4ccccc4oc3=O)nc(C)c2C(=O)Nc2ccccc2)cc1`, the AC50 under setting [1] is 7.08 µM [rising, partial curve].
`CCn1c(SCC(=O)N2CCCC2)nc2ccccc21`: the half-maximal activity concentration (AC50) under setting [1] is 5.62 µM [rising, partial curve].
In the case of `Cc1ccc(Cl)cc1-c1ccc(C=Nc2ccc(N3CCOCC3)cc2)o1`, under setting [1], the AC50 was 15.8 µM [rising, single point].
Take `O=C(Cc1ccccc1)Nc1ccccc1Oc1ccccc1`: the half-maximal activity concentration (AC50) under setting [2] is 12.6 µM [rising, single point].
Turning to `CNC(=O)CN(c1cc(OCCOC)c(Cl)cc1Cl)S(=O)(=O)c1ccccc1`, the AC50 under setting [2] is 14.1 µM [falling, single point].
Regarding `N#Cc1c(-c2ccc(F)cc2)ccnc1N1CCOCC1`, the AC50 under setting [1] is 0.0251 µM [falling, full curve, poor fit].
Take `Cc1ccccc1Cn1ccc(NC(=O)CCSc2nc(-c3ccco3)cc(C(F)(F)F)n2)n1`: the AC50 under setting [1] was 12.6 µM [rising, single point].
The same measure, in the same setting: in the case of `Cc1cc(=O)[nH]c(N/N=C/c2c(C)nn(-c3ccccc3Cl)c2Cl)n1` it was 31.6 µM [rising, single point].
Turning to `O=C(NC1CCCCCCC1)c1ccc2c(c1)N(Cc1ccc(F)cc1)C(=O)CS2=O` (stereo not drawn), the AC50 under setting [2] is 15.8 µM [rising, single point].
As for `Cc1ccc(N2CCN(C(=O)c3nn(C)c4c3CS(=O)(=O)c3ccccc3-4)CC2)c(C)c1`, the AC50 under setting [1] is 0.00355 µM [falling, full curve, poor fit].
With `CC[C@H]1OC(=O)[C@H](C)[C@@H](O[C@H]2C[C@@](C)(OC)[C@@H](O)[C@H](C)O2)C(C)[C@@H](O[C@@H]2O[C@H](C)C[C@H](N(C)C)[C@@H]2O)[C@](C)(OC)C[C@@H](C)C(=O)[C@H](C)[C@@H](O)[C@]1(C)O` (stereo partly drawn), the concentration at half-maximal activity (AC50) under setting [2] is 14.1 µM [rising, single point].
`CCN(CC)S(=O)(=O)c1cccc(C(=O)Nc2cccc(C)c2)c1`: the AC50 under setting [1] is 28.2 µM [rising, single point].
With `COc1ccc(NC(=S)N(Cc2cccnc2)Cc2ccco2)cc1`, the AC50 under setting [2] was 2 µM [falling, partial curve, poor fit].
Consider `O=C(CCc1ccccc1)Nc1ccc(Cl)cn1`, for which the half-maximal activity concentration (AC50) under setting [1] is 8.91 µM [rising, partial curve, poor fit].
For the molecule `Cc1cccc(NC(=O)Cn2nc(-c3ccccc3)c3cnc4ccccc4c32)c1`, the AC50 runs as follows: under setting [2], 12.6 µM [falling, partial curve]; under setting [1], 20 µM [falling, partial curve, poor fit].
For `CN(Cc1ccccc1)C(=O)c1nc2ccccn2c1CN1CCCC1c1nccs1` (stereo not drawn), the AC50 under setting [2] was 0.447 µM [falling, full curve, poor fit].
Consider `FC(F)(F)c1ccccc1-c1nccc(-n2ccnc2)n1`, for which the AC50 under setting [1] was 0.126 µM [falling, full curve, poor fit].
With `CCc1ccccc1NC(=O)N1CCOc2ccccc21`, the half-maximal activity concentration (AC50) under setting [2] was 0.00316 µM [falling, full curve].
Regarding `O=C(NCc1ccncc1)C(=O)NCC(c1ccco1)N1CCN(c2ccc(F)cc2)CC1` (stereo not drawn), the AC50 under setting [1] is 25.1 µM [rising, single point].
Consider `CN(C)S(=O)(=O)c1ccc(NCC2COc3ccccc3O2)c([N+](=O)[O-])c1` (stereo not drawn), for which the AC50 under setting [1] was 17.8 µM [rising, partial curve, poor fit].
Consider `CCCOc1ccc(C2C(=O)N(C3CCCCCC3)CC(=O)N2Cc2ccccc2OC)cc1OC` (stereo not drawn), for which, under setting [2], the AC50 is 35.5 µM [rising, single point].
For `COc1cc(NC(=O)CC2C(=O)N(c3ccccc3)C(=O)N2Cc2ccc(F)cc2)cc(OC)c1` (stereo not drawn), under setting [1], the AC50 was 0.0224 µM [falling, full curve, poor fit].
Consider `Cc1cccc(CNc2ccnc(-c3ccc(C(=O)N(C)C)cc3)n2)c1`, for which, under setting [2], the AC50 is 12.6 µM [falling, partial curve].
Turning to `COc1ccc(C(=O)C2CCCN(Cc3ccc4nonc4c3)C2)cc1OC` (stereo not drawn), the AC50 is, setting by setting: under setting [2], 0.0224 µM [falling, full curve, poor fit]; under setting [1], 0.02 µM [falling, full curve].
As to `Cc1ccc(S(=O)(=O)Nc2ccccc2C(=O)Nc2nc(-c3ccc(F)cc3)cs2)cc1`, under setting [1], the AC50 was 0.562 µM [rising, partial curve].
With `COc1ccc(OC)c(NC(=O)Cn2cc(C#N)c3ccccc32)c1`, the AC50 under setting [2] was 35.5 µM [falling, single point].
Turning to `COc1ccc(OCc2nc(C#N)c(N3CCN(c4ccc(OC)cc4)CC3)o2)cc1`, the AC50 under setting [1] is 22.4 µM [rising, single point].
As for `O=C(Nc1cccc(S(=O)(=O)N2CCCCC2)c1)c1ccc2c(=O)n3c(nc2c1)CCCCC3`, the AC50 was 17.8 µM [rising, single point] under setting [2] and 11.2 µM [rising, partial curve] under setting [1].
On to `COc1ccc(C(=O)/C=C/c2ccc(C)cc2)c(OC(=O)c2ccc([N+](=O)[O-])cc2)c1`, for which the AC50 under setting [1] is 4.47 µM [rising, full curve].
On to `CC(C)c1nnc(NC(=O)c2c(O)c3cccc4c3n(c2=O)CCC4)s1`, for which the AC50 under setting [1] is 5.62 µM [rising, partial curve, poor fit].
Same read-out and setting: to `CC(C)(C)C(=O)Nc1sc2c(c1C(=O)Nc1ccccn1)CCCC2` belongs 0.0562 µM [falling, full curve, poor fit].
`CCCC(=O)Nc1ccc(N2CCN(C(=O)CCC)CC2)cc1`: under setting [2], the AC50 is 0.251 µM [falling, partial curve, poor fit].
`COCCn1c(=O)c(-c2ccc(Cl)cc2)nc2cnc(Nc3ccccc3)nc21`: the AC50 by setting is: under setting [2], 12.6 µM [falling, partial curve]; under setting [1], 15.8 µM [falling, partial curve].
In the case of `CC[n+]1c(/C=C(/C)SC)sc2ccccc21`, the AC50 under setting [1] is 35.5 µM [rising, single point].
Still for that read-out and setting: in the case of `O=C(Nc1ccccc1-c1nnc(SCc2ccc(Cl)cc2Cl)o1)c1ccccc1` it was 35.5 µM [rising, single point].
